According to US5874272A, “Inosine-guanosine kinase” (Kyowa Hakko Kogyo Co., Ltd., priority 1998, dated 1999):
At least one compound was matched to its structure with a doubt left.

Biological target: T1, inosine-guanosine kinase (Escherichia coli, UniProt P0AEW6)
T1 construct: made in house; host or cells: Escherichia coli
T1 sequence (P0AEW6 1-434): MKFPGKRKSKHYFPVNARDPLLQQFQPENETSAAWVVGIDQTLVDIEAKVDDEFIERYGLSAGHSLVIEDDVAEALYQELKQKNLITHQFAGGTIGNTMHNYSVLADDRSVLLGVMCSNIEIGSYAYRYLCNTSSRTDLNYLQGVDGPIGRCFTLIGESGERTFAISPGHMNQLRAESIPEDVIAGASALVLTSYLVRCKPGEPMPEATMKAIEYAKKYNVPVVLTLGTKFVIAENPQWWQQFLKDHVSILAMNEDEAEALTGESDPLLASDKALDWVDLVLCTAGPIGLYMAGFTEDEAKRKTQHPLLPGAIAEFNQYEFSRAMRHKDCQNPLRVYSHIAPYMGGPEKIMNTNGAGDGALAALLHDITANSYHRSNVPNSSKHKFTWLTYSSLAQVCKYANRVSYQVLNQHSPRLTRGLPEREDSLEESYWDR
Assay: Substrate specificity (phosphate-donor / phosphate-acceptor)
Type: biochemical
Settings: 5 mM phosphate source instead of ATP, 300 mM KCl, 30° C.
Protocol: The activity of the inosine-guanosine kinase obtained is determined as follows. A reaction solution (hereafter referred to as reaction solution a) having a composition of 100 mM HEPES buffer (pH 7.2), 10 mM MgSO4, 50 mM KCl, 1 mM ATP and 1 mM inosine is brought into contact with the inosine-guanosine kinase in a concentration of about 10 μg protein/ml followed by reaction at 30° C. for about 30 minutes. During the course of reaction, a part of the reaction solution is subjected to sampling intermittently. After the reaction solution is diluted to 1/20 with 0.2M NaH2 PO4 (adjusted the pH to 2.6 with H3 PO4) to stop the reaction, an amount of 5'-IMP in the stopped reaction solution is quantitatively determined by HPLC. Analysis by HPLC is made by using 0.2M NaH2 PO4 (pH 2.6) at a flow rate of 1 ml/min. as an eluting solution and Asahipak GS-320H (manufactured by Asahi Chemical Co., Ltd.) as a column. Detection of components was made by the absorbance at UV absorbance at 254 nm as an index. Quantitative determination was made by comparing absorbancy with that of the standard. […]

For `O=[N+]([O-])c1ccc(OP(=O)(O)O)cc1` [PNPP, p-nitrophenyl phosphate], the “suitability as phosphate-donor (in words)” value was “could not be phosphate-donors”.
